# The other results are listed elsewhere or left out.
# Sequences of proteins named here, by UniProt entry; tags and fusion partners are left off.
# UniProt Q0JBA9, entry or part of it: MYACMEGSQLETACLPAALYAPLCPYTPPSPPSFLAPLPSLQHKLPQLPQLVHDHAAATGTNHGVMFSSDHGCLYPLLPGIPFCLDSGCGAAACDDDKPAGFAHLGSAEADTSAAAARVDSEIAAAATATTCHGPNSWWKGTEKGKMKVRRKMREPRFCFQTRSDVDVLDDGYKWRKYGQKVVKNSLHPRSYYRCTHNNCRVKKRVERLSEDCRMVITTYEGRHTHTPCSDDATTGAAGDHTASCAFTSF
# Target: OsWRKY34 (Oryza sativa, UniProt Q0JBA9 1-250)
# Test: protein-binding microarray (RPBM); PBS, 2% BSA, 51.3 ng/ul salmon testes DNA, 50 uM zinc acetate, 200 nM TF, 25 C, 1 h; high values mean tight binding
# Conditions: protein: recombinant; tags: N-terminal polyhistidine and DsRed monomer fusion (pET32a); label: CyDye5-dUTP incorporated in the synthesized complementary strand; 3' TTTTT single-stranded linker to array surface; dsDNA, one strand shown
# In short: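 In PBS with 2% BSA, salmon testes DNA and 50 µM zinc acetate, 200 nM protein was incubated on a custom Agilent array at 25 °C for 1 h and then washed off. The array had been made double-stranded by primer extension with Cy5-dUTP and blocked with 2% BSA. The proteins were transcription factors fused N-terminally to polyhistidine and DsRed, expressed in E. coli BL21-CodonPlus and purified on Ni–NTA. The binding signal is per-feature fluorescence intensity (arbitrary units) from an Axon 4000B scanner.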
row,Sequence,binding signal
1,ATCGTCTCTCTCTTCTGTCCCTTATATAAGCTAGCTCCACCGGAGTCACCTAGTGCAG,8900 fluorescence intensity (a.u.)
2,GGTGGGGTAGAGTCGACGGCGCCGTGGTGGGGCGGAGTTACGGAGTCACCTAGTGCAG,12400 fluorescence intensity (a.u.)
3,TGTTCTCCATGCATGGCTGCACCTGAACTTGTCCTGCACTCGGAGTCACCTAGTGCAG,8190 fluorescence intensity (a.u.)
4,ACTGCACTTCCTAGCTTAGCTGTTCATCTCTCACCTGACTCGGAGTCACCTAGTGCAG,9570 fluorescence intensity (a.u.)
5,GAACATGTTGTTCAGTTGGCCTCGTTTTCTCACCTTTGCTCGGAGTCACCTAGTGCAG,12500 fluorescence intensity (a.u.)
6,TGTGTTCGTTGTTCGCGCGTCTATATAAGCGGTGCCGCTCCGGAGTCACCTAGTGCAG,10800 fluorescence intensity (a.u.)
7,ACTGTTAGTTGCATTCGAGTTGTCATCCATATTTTTAACACGGAGTCACCTAGTGCAG,9940 fluorescence intensity (a.u.)
8,TATTTCTGTATTTCCTATTGCTGTATTTCGAAGGAGTCGACGGAGTCACCTAGTGCAG,8300 fluorescence intensity (a.u.)
9,TACAGTTCTGTGGGTGGGGACAGCTTCCTAGATATCCGGCCGGAGTCACCTAGTGCAG,16000 fluorescence intensity (a.u.)
10,GTATTAAACCAAACAAGCCCTACATTTTTTTATGTACATTCGGAGTCACCTAGTGCAG,8250 fluorescence intensity (a.u.)
11,GTTTCTACTCTGTTTCACACTAACTGTTCTAGATCATGACCGGAGTCACCTAGTGCAG,11800 fluorescence intensity (a.u.)
12,TCCATCACATCACATCACAGCCTCGTTCGTTCGTCGCTGACGGAGTCACCTAGTGCAG,10600 fluorescence intensity (a.u.)
13,TGTCCGCCAACCTCCGCGTCGTGCCGCTCGACCTCCCGGCCGGAGTCACCTAGTGCAG,8310 fluorescence intensity (a.u.)
14,TTTTTATTACATTGTATATACTACTCCCTCTGTCCCATAACGGAGTCACCTAGTGCAG,8990 fluorescence intensity (a.u.)
15,GTGCGGTTTTTCTCCTGGTTCTTTTGTGTACTTTATACCACGGAGTCACCTAGTGCAG,18200 fluorescence intensity (a.u.)
16,GATTTGAGTTTTCCTGTTCATCTTTTCGTTAAGATAAAAACGGAGTCACCTAGTGCAG,9210 fluorescence intensity (a.u.)
17,CTTATTGTTTTGATTATGCTTATGTGAATCGCTTATTAACCGGAGTCACCTAGTGCAG,8660 fluorescence intensity (a.u.)
18,GGGCCCCACCATTTTAAAATTATCTTTTTTATGTAACTGACGGAGTCACCTAGTGCAG,9330 fluorescence intensity (a.u.)
19,TAGTTCTTCCATGCTTTGCTTGCTCTCCCTTGTGAACACACGGAGTCACCTAGTGCAG,8600 fluorescence intensity (a.u.)
20,CTTCTTCTTCTTCTTCTTCTTTTCTTTTTTATATCAAATCCGGAGTCACCTAGTGCAG,9520 fluorescence intensity (a.u.)
21,GTTCGATATTTGAAATTTCCCCATCCGAAATTTTCTCTTCCGGAGTCACCTAGTGCAG,9230 fluorescence intensity (a.u.)
22,ATGCCCATTTTGTAGCGTCGATTCTTGTTTCTGCTTGATTCGGAGTCACCTAGTGCAG,10300 fluorescence intensity (a.u.)
23,CACCAATAAGTAATGTGAGCTGGGTTTCATTTTTGTACTTCGGAGTCACCTAGTGCAG,8450 fluorescence intensity (a.u.)
24,TCAGAGCCTGTTTTTGTTGTTGTTCTCACTTTTTGCTTCACGGAGTCACCTAGTGCAG,9030 fluorescence intensity (a.u.)
25,ATTATTTTTTCAGTGATAGACGGTGTACCCGCCACCGACACGGAGTCACCTAGTGCAG,8110 fluorescence intensity (a.u.)
26,CAACTACCTCCTTTTTCCGTGAGTCCAATTTCTAAATTACCGGAGTCACCTAGTGCAG,9370 fluorescence intensity (a.u.)
27,TCATGAGCTACTGTCCTCATCACGGTCGCCGTCGTCTTCCCGGAGTCACCTAGTGCAG,11800 fluorescence intensity (a.u.)

row,Sequence,binding signal
1,TAAACCACTTTCTCCGGTCAAACACTCCGTCCCCACCTATCGGAGTCACCTAGTGCAG,9870 fluorescence intensity (a.u.)
2,TTTTTTTTCCCTTCTTCTCCGCGCGCGTGTTCTCCTCGATCGGAGTCACCTAGTGCAG,8860 fluorescence intensity (a.u.)
3,TGTTGGCTCTTCACATGTACAATGTGACATCTCCTTTCACCGGAGTCACCTAGTGCAG,8680 fluorescence intensity (a.u.)
4,GCGTTTGCCAGCCGGCCGCCTGCCATTGTGCCTTTCTGCGCGGAGTCACCTAGTGCAG,9920 fluorescence intensity (a.u.)
5,GGGGTGTAGGAGGGTTATGGAGGAGGCCTGAACTGAATTTCGGAGTCACCTAGTGCAG,8780 fluorescence intensity (a.u.)
6,ACCACTCACCCTTCTCAATATATACTCTAGCTCCGCCCTGCGGAGTCACCTAGTGCAG,8140 fluorescence intensity (a.u.)
7,GAGGTGGGTGGTCCGAAGTCCGAAACCCTATCATGCATGCCGGAGTCACCTAGTGCAG,8210 fluorescence intensity (a.u.)
8,TGGTGCCATGTCCGTGCATTCACAGCAGTGTTTGTTATTCCGGAGTCACCTAGTGCAG,8440 fluorescence intensity (a.u.)
9,GAATTTCATTGTGCCGCATTCTTATGGAGCTTTACGTTGTCGGAGTCACCTAGTGCAG,8100 fluorescence intensity (a.u.)
10,CTTTTCGATTGAATGACTAGGTGTTTTGTGTTAATCTTGTCGGAGTCACCTAGTGCAG,9610 fluorescence intensity (a.u.)
11,TCAATAACCTTAACTGCCAACATTTTATCTTTACTTTTTTCGGAGTCACCTAGTGCAG,8160 fluorescence intensity (a.u.)
12,TTCTGCGATCCGCCTGTTTAGGTCCTCGCTGTCCACCAAACGGAGTCACCTAGTGCAG,9620 fluorescence intensity (a.u.)
13,AACACTAGTCCAAGTTTTTTCGGTATAACTACATCCTCCACGGAGTCACCTAGTGCAG,8080 fluorescence intensity (a.u.)
14,TCCTCTGTTTACTTATATATAATAGACCTGCTTTTGTAGCCGGAGTCACCTAGTGCAG,8900 fluorescence intensity (a.u.)
15,AACCTGTACTCTTCTTGCTCGCGTTCGCGTATATATCCCTCGGAGTCACCTAGTGCAG,15200 fluorescence intensity (a.u.)
16,GCAGTTTATTTTGGTCAGATTGTTGTTGTGTGCTATTTTACGGAGTCACCTAGTGCAG,14800 fluorescence intensity (a.u.)
17,AATACACGATTTTAAGGGTTTTCTGGGGCTAATCTTTTTTCGGAGTCACCTAGTGCAG,11400 fluorescence intensity (a.u.)
18,CCTCCTCGCCGTGCTCCTCACACCGCACCACACCACGTCTCGGAGTCACCTAGTGCAG,11600 fluorescence intensity (a.u.)
19,ATAATTAGTCGTGTGCATCACCGTCATCTGGTATCTCTTGCGGAGTCACCTAGTGCAG,9560 fluorescence intensity (a.u.)
20,TACCGCTCCCATCCCACGGCTACCATCCATCACCATGATCCGGAGTCACCTAGTGCAG,8080 fluorescence intensity (a.u.)
21,TCTCGATCGCATCCAGCCTCATCAACTCCACTTCTCACACCGGAGTCACCTAGTGCAG,11300 fluorescence intensity (a.u.)
22,AACTTCGACACAATCTTTAAGATACTACTTTGACCAACAACGGAGTCACCTAGTGCAG,8220 fluorescence intensity (a.u.)
23,TCAATCCCCGCCATTAATACCTTTGACTTTTTTTTAAAAACGGAGTCACCTAGTGCAG,9530 fluorescence intensity (a.u.)
24,ACTCCTTATCCCATACACACACAATCTCCCTATCATATGCCGGAGTCACCTAGTGCAG,8630 fluorescence intensity (a.u.)
25,CGCTCCTCGCCGCCTTGAACCTCACAGCGAAACCTGATCACGGAGTCACCTAGTGCAG,8600 fluorescence intensity (a.u.)
26,CTCTTTCTCTCTCTTCTTCTTCTCTCAAAGGTTGAGGAGACGGAGTCACCTAGTGCAG,8150 fluorescence intensity (a.u.)
27,CCACACCACAGTCGCCTCTCTCCTCTTTCACCGAGAAGCGCGGAGTCACCTAGTGCAG,8150 fluorescence intensity (a.u.)

# Three records drawn at random from the list so far:
row,Sequence,binding signal
10,CTTTTCGATTGAATGACTAGGTGTTTTGTGTTAATCTTGTCGGAGTCACCTAGTGCAG,9610 fluorescence intensity (a.u.)
17,AATACACGATTTTAAGGGTTTTCTGGGGCTAATCTTTTTTCGGAGTCACCTAGTGCAG,11400 fluorescence intensity (a.u.)
16,GCAGTTTATTTTGGTCAGATTGTTGTTGTGTGCTATTTTACGGAGTCACCTAGTGCAG,14800 fluorescence intensity (a.u.)
